In PubChem BioAssay AID540256 (National Center for Advancing Translational Sciences (NCATS), 2011):
In all, about 300,000 compounds went through this assay and about 3,700 (1.2%) were called active. This list was built around the results that the source calls inconclusive (neither active nor inactive); the mix of calls is not that of the screen. The call rests on the fitted dose curve; tested in HEK293 cells. Potencies beside an inconclusive call are fits to weak or partial responses and may not hold up.

assay: qHTS for Inhibitors of binding or entry into cells for Lassa Virus; settings: Lassa virus pseudotype entry inhibition, cell reporter; activity change, negative = inhibition: at 37.9 µM (top of the series) unless noted; further: nearly all actives have a fitted effect of over 50% in size
On the % scale 0 is the no-effect control and ±100 the full control effect; potency means the concentration at half of the fitted maximal effect.

Structure (SMILES) | Potency | activity change, negative = inhibition
c1ccc(-c2cc(NCCN3CCCCC3)c3ccccc3n2)cc1 | inconclusive: 11.2 µM [inhibitor, partial curve, poor fit] | 
CCOc1ccc(NC(=O)Cn2c(=O)n(CCC(=O)NCCc3ccccc3)c(=O)c3ccccc32)cc1 |  | inactive: 0.659% [at 46.1 µM]
COC(CN(C)C(=O)c1ccc(CS(=O)(=O)c2ccccc2C)o1)OC |  | inactive: -16% [at 46.1 µM]
CC(=O)Cc1nsc(NC(=O)c2ccc(F)cc2)n1 | inconclusive: 11.2 µM [activator, partial curve, poor fit] | 
COc1ccc(/C=c2\s/c(=C/C(=O)c3ccc(C)cc3)[nH]c2=O)c(OC)c1 | inconclusive: 5.62 µM [inhibitor, full curve, poor fit] | 
Cc1ccccc1NC(=O)CSc1nc(N)c2c3c(sc2n1)CSC(C)(C)C3 | inconclusive: 20.6 µM [inhibitor, single point] | 
COc1ccc(N2CCc3c(C)nc4c(OC)cc(OC)cc4c32)c(OC)c1 | inconclusive: 16.4 µM [inhibitor, single point] | 
Cc1ccc(C(=O)COC(=O)c2cccc(N3C(=O)c4c(C)nc5ccccc5c4C3=O)c2)cc1C | inconclusive: 22.4 µM [activator, single point] | 
O=C(CC1C(=O)NCCN1C(=O)Nc1ccccc1)Nc1cccc(C(F)(F)F)c1 (configuration not stated) | inconclusive: 6.51 µM [activator, partial curve, poor fit] | 
CCOc1cc(C(=S)N2CCOCC2)ccc1OS(=O)(=O)c1ccccc1[N+](=O)[O-] | inconclusive: 29.1 µM [inhibitor, single point] | 
CN(C)CC1CCCCC1OC(=O)/C=C/c1ccc(Cl)cc1Cl (configuration not stated) | inconclusive: 35.5 µM [inhibitor, single point] | 
c1ccc2c3c([nH]c2c1)C(C1CCCCC1)N(Cc1ncc[nH]1)CC3 (configuration not stated) |  | inactive: -18% [at 46.1 µM]
COc1ccccc1OCCOC(=O)Nc1ccccc1 |  | inactive: 24.3%
O=S(=O)(c1ccc(Cl)cc1)N1CCN(Cc2ccncc2)CC1 |  | inactive: 5.43% [at 46.1 µM]
Oc1ccc(Nc2nc(-c3ccccc3)nc3ccccc23)cc1 | inconclusive: 35.5 µM [inhibitor, single point] | 
O=c1c([N+](=O)[O-])c(N2CCOCC2)c2ccccc2n1Cc1ccccc1 | inconclusive: 28.2 µM [inhibitor, single point] | 
CNC(=O)N1c2ccccc2NC(=O)CC1C (configuration not stated) | inconclusive: 3.55 µM [inhibitor, single point] | 
O=C(CCCc1ccccc1)Nc1ccccc1C(F)(F)F | inconclusive: 14.1 µM [activator, single point] | 
Cc1ccc(OCC(=O)Nc2ccccc2N2CCCC2)c(C)c1 | inconclusive: 0.562 µM [inhibitor, full curve, poor fit] | 
COc1ccc(/C(C)=N/Nc2ccccc2Cl)c(O)c1 | inconclusive: 5.62 µM [activator, single point] | 
Cc1ccc(Cn2ccsc2=NC(=O)COC(=O)C(C)C)cc1 |  | inactive: 2.05% [at 46.1 µM]
Cc1ccc(-c2noc(CCC(=O)N3CCCC3)n2)cc1 |  | inactive: 5.11%
CC1=C(C(=O)OC2CCCC2)C(c2ccccc2Cl)CC(=O)N1 (configuration not stated) |  | inactive: -20.6% [at 46.1 µM]

Another view of part of the listing above.
CC(=O)Cc1nsc(NC(=O)c2ccc(F)cc2)n1
  Potency: inconclusive: 11.2 µM [activator, partial curve, poor fit]
COc1ccc(/C=c2\s/c(=C/C(=O)c3ccc(C)cc3)[nH]c2=O)c(OC)c1
  Potency: inconclusive: 5.62 µM [inhibitor, full curve, poor fit]
Cc1ccccc1NC(=O)CSc1nc(N)c2c3c(sc2n1)CSC(C)(C)C3
  Potency: inconclusive: 20.6 µM [inhibitor, single point]

Carrying on.

Structure (SMILES) | Potency | activity change, negative = inhibition
COc1ccc(CCN2CC(C(=O)NCCN3CCOC3=O)CCC2=O)cc1 (configuration not stated) |  | inactive: -1.81%
COc1ccc(CCNC(=O)COc2ccc(S(=O)(=O)NC3CCCCC3)cc2Cl)cc1 | inconclusive: 13 µM [inhibitor, partial curve, poor fit] | 
CC(NC(=O)c1cccs1)C(c1cccs1)N1CCN(Cc2ccccc2)CC1 (configuration not stated) | inconclusive: 0.259 µM [inhibitor, partial curve, poor fit] | 
CCOC(=O)c1ccc(NC(=O)CN2C(=O)COc3ccc(Cl)cc32)cc1 |  | inactive: -27% [at 46.1 µM]
CCN(Cc1ccccc1)C(c1ccc(Cl)cc1)c1nnnn1C(C)(C)C (configuration not stated) | inconclusive: 15.8 µM [inhibitor, single point] | 
COc1ccc(CN(C)C(=O)c2cccc(NS(=O)(=O)c3ccccc3)c2)c(OC)c1 | inconclusive: 14.1 µM [inhibitor, partial curve, poor fit] | 
Cc1ccc(C(c2sc3nc(-c4ccco4)nn3c2O)N2CCN(Cc3ccccc3)CC2)cc1 (configuration not stated) |  | inactive: -9.42% [at 46.1 µM]
COc1ccccc1CNC(=O)c1cnn2c(C)c(Cc3ccc(F)cc3)c(C)nc12 | inconclusive: 2 µM [inhibitor, partial curve, poor fit] | 
CC1CCN(S(=O)(=O)c2cccc(C(=O)N(Cc3ccccc3)c3ccccn3)c2)CC1 | inconclusive: 20 µM [inhibitor, partial curve, poor fit] | 
CCc1cccc2c(C(=O)C(NCCCOC)c3ccccc3)c[nH]c12 (configuration not stated) | inconclusive: 12.6 µM [inhibitor, partial curve, poor fit] | 
N#Cc1ccccc1OCC(=O)Nc1ccc2c(c1)OCCO2 |  | inactive: -12.5%
O=C(c1ccco1)N1CCN(c2ncnc3scc(-c4cccs4)c23)CC1 | inconclusive: 2.91 µM [inhibitor, partial curve, poor fit] | 
Cc1ccc(NC(=O)Nc2ccc(F)c(Cl)c2)cc1 |  | inactive: 1% [at 46.1 µM]
Cc1cccc(N2CCN(C3(c4ccccc4)C(=O)c4ccccc4C3=O)CC2C)c1 (configuration not stated) |  | inactive: -23.5% [at 46.1 µM]
Fc1ccc(COc2ccc(/C=N/n3cnnc3)cc2)cc1 |  | inactive: 8.99%
Cc1ccc(C)c(NC(=S)N/N=C2/CCCCc3ccccc32)c1 | inconclusive: 35.5 µM [inhibitor, single point] | 
O=c1[nH]c(CN2CCN(C/C=C/c3ccccc3)CC2)nc2cc(Cl)ccc12 |  | inactive: 1.05%
Cc1occc1C(=O)N/N=C/C=C/c1ccccc1 | inconclusive: 7.3 µM [activator, partial curve, poor fit] | 
CC1(C)CC(=O)C(CC2CCCCC2=O)C(=O)C1 (configuration not stated) | inconclusive: 14.1 µM [activator, partial curve, poor fit] | 
COc1ccc(CC(=O)N2CCN=C2SCc2ccc([N+](=O)[O-])cc2)cc1 | inconclusive: 15.8 µM [inhibitor, partial curve, poor fit] | 
O=C(Nc1cccc(F)c1)NC1CCCCCCC1 | active: 12.6 µM | 
O=S(=O)(Cc1ccccc1)N1CCCCCC1 |  | inactive: 0.0074%
O=C(c1ccccc1F)N1CCCC(C(=O)N2CCc3ccccc3C2)C1 (configuration not stated) | inconclusive: 0.316 µM [inhibitor, full curve, poor fit] | 

Structure (SMILES) | Potency | activity change, negative = inhibition
CC1C(=O)N2CCCc3cc(NS(=O)(=O)c4ccc(F)cc4)cc1c32 (configuration not stated) | inconclusive: 35.5 µM [inhibitor, single point] | 
COc1ccc(-c2nc3sc(CCNC(=O)C(=O)Nc4c(C)cccc4C)c(C)n3n2)cc1 | inconclusive: 1 µM [inhibitor, partial curve, poor fit] | 
Cc1ccc(Cl)cc1N1CCN(C(=O)C2CCN(Cc3nc(-c4ccc(Cl)cc4)oc3C)CC2)CC1 | inconclusive: 35.5 µM [activator, single point] | 
CC(C)(C)OC(=O)N1CCC(c2c(C(=O)NC3CCCCC3)cnn2-c2cccc(Cl)c2)CC1 |  | inactive: -20.2% [at 46.1 µM]
Cn1nccc1C(=O)NCc1ccc2c(c1)CCN2C(=O)c1ccccc1 | inconclusive: 10 µM [inhibitor, partial curve] | 
O=C(Nc1ccc(S(=O)(=O)NCC2CCCO2)cc1)c1ccc(F)cc1 (configuration not stated) | inconclusive: 2.51 µM [inhibitor, partial curve, poor fit] | 
O=c1c2c(-c3ccc([N+](=O)[O-])cc3)csc2nc2n1CCCCC2 | inconclusive: 1.26 µM [inhibitor, single point] | 
Cc1ccc2nc(-c3ccncc3)cc(C(=O)Nc3ccc4c(c3)OCCO4)c2c1 | inconclusive: 10 µM [inhibitor, partial curve, poor fit] | 
CC(C)N=C(NS(=O)(=O)c1ccccc1)C(Cl)(Cl)Cl | inconclusive: 15.8 µM [inhibitor, single point] | 
CC(C)(C)c1ccc(-c2noc(CCC(=O)N3CCOCC3)n2)cc1 | inconclusive: 11.2 µM [inhibitor, partial curve, poor fit] | 
Cc1ccc(CS(=O)(=O)Cc2ccc(C(=O)NCc3cccs3)o2)cc1 | inconclusive: 4.47 µM [inhibitor, full curve] | 
COCCNc1ncnc2c1c(-c1ccccc1)cn2-c1cccc(Cl)c1 | inconclusive: 11.2 µM [inhibitor, partial curve] | 
CC(C)C(=O)OCc1cc(=O)n2nc(C3CCCCC3)sc2n1 |  | inactive: -2% [at 46.1 µM]
NC(N)=Nc1ccc(C=C2C=Cc3ccccc32)cc1 | inconclusive: 4.47 µM [activator, partial curve, poor fit] | 
Cc1c(CCOC(=O)C23CC4CC(CC(C)(C4)C2)C3)sc[n+]1Cc1ccccc1 | inconclusive: 23.1 µM [inhibitor, single point] | 
O=C(CN1C(=O)C(=O)N(C2CCCC2)C1=O)Nc1ccc(N2CCOCC2)cc1 | inconclusive: 1.26 µM [activator, single point] | 
Cc1ccc(S(=O)(=O)n2c3ccc(F)cc3c3nc(C)sc32)cc1 | inconclusive: 16.4 µM [inhibitor, partial curve, poor fit] | 
C=CCNC(=O)C(=O)Nc1ccc2c(c1)N(S(=O)(=O)c1cccs1)CCC2 | active: 8.91 µM | 
CCCCn1c(CN(C)Cc2ccccc2)nc2c1c(=O)n(C)c(=O)n2C |  | inactive: -17.9%
Cc1ccc(-c2csc(N(CC3CCCO3)C(=O)c3ccco3)n2)cc1 (configuration not stated) | inconclusive: 29.1 µM [inhibitor, single point] | 
CCCC(=O)N1CCN(c2ccc(NC(=O)c3ccc([N+](=O)[O-])o3)cc2)CC1 | inconclusive: 10 µM [inhibitor, partial curve] | 
